Reference: publication PMC11482726
These are yes or no findings as the source states them, for the method shown. Binding seen in cells or lysates may run through a third protein. Some results given as binding are weak or reduced against the parent protein; the word gives no strength. Tags and fused reporters may be left off the sequences shown.

Molecular target: T1, human IRF3, MYC-tagged, from pXJ41-hIRF3 (human) (UniProt Q14653)
T1 sequence: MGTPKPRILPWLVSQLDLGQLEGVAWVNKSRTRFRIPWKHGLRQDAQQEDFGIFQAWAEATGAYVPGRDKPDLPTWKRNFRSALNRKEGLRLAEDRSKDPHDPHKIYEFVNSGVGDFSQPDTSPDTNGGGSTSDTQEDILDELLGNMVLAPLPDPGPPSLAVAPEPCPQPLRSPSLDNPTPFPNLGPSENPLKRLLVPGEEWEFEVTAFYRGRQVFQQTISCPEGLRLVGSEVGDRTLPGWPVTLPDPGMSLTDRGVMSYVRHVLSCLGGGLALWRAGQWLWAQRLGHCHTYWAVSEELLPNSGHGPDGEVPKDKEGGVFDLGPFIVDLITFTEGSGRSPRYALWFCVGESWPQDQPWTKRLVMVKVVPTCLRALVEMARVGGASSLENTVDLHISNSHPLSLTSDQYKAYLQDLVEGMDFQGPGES
Experiment: co-IP; HEK-293T cells transfected with pXJ41-hIRF3 or pXJ41 for 24 h; IP with anti-MYC antibody, blot with anti-NONO antibody (endogenous NONO)

binding: binds
B1: NONO, endogenous in HEK-293T cells (protein, UniProt Q15233 1-471)
chain: MQSNKTFNLEKQNHTPRKHHQHHHQQQHHQQQQQQPPPPPIPANGQQASSQNEGLTIDLKNFRKPGEKTFTQRSRLFVGNLPPDITEEEMRKLFEKYGKAGEVFIHKDKGFGFIRLETRTLAEIAKVELDNMPLRGKQLRVRFACHSASLTVRNLPQYVSNELLEEAFSVFGQVERAVVIVDDRGRPSGKGIVEFSGKPAARKALDRCSEGSFLLTTFPRPVTVEPMDQLDDEEGLPEKLVIKNQQFHKEREQPPRFAQPGSFEYEYAMRWKALIEMEKQQQDQVDRNIKEAREKLEMEMEAARHEHQVMLMRQDLMRRQEELRRMEELHNQEVQKRKQLELRQEEERRRREEEMRRQQEEMMRRQQEGFKGTFPDAREQEIRMGQMAMGGAMGINNRGAMPPAPVPAGTPAPPGPATMMPDGTLGLTPPTTERFGQAATMEGIGAIGGTPPAFNRAAPGAEFAPNKRRRY
